Results are given in words; binding and its absence hold for the method and conditions named. For some of these results: Binding seen in cells or lysates may run through a third protein. Some entries that bind do so weakly or less than the wild type.
Experiments:
[1] = molecular target: Proliferating cell nuclear antigen (PCNA), purified (UniProt P12004); experiment: MST; Monolith NT.115; 100 nM protein labelled with Atto 488, peptide or protein serially diluted typically from about 100 uM to 30 nM; 0.01 M HEPES pH 7.4, 0.15 M NaCl, 0.005% Surfactant P20; 22 °C; both purified
[2] = molecular target: Tyrosine phosphorylated PCNA (pPCNA) (UniProt P12004); experiment: as above
GFP-tagged PCNA = GFP-tagged PCNA (UniProt P12004); experiment: FRET or BRET; FLIM/FRET in cells co-expressing RFP-tagged GRB2 and GFP-tagged PCNA; reduction of the average lifetime of the GFP-tagged PCNA

Protein sequences, listed by entry. Tags and fused reporters are not part of them.
UniProt P12004: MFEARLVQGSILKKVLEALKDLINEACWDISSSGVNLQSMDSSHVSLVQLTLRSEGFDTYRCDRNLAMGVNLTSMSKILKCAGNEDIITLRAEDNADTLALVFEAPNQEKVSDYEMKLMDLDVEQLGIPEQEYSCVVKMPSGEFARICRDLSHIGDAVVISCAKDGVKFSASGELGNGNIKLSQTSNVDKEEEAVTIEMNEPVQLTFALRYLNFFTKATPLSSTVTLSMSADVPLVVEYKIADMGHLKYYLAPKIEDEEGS
UniProt P62993: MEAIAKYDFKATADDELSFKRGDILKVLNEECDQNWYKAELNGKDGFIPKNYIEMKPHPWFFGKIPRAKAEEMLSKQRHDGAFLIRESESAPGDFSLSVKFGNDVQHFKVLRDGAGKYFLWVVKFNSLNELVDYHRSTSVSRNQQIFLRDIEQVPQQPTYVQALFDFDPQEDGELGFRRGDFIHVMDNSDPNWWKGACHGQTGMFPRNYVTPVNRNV

binding [1] | binding [2] | binding (GFP-tagged PCNA) | Molecule
binds | binds | – | Growth factor receptor-bound protein 2 (GRB2), wild type (from UniProt P62993 1-217)
– | – | binds | RFP-tagged GRB2 (from UniProt P62993 1-217)
binds | – | – | GASHGQTGMFPRNYVT [Synthetic GRB2 PIP motif peptide]
